About 5,400 (1.8%) of roughly 300,000 compounds were called active. Inconclusive means that the source gave no clear call. Such entries were picked first, then a sample of the others. Calls come from the whole dose curve; tested in HEK293 cells. Potencies beside an inconclusive call are fits to weak or partial responses and may not hold up.
Experiment: qHTS for inhibitors of binding or entry into cells for Marburg Virus
Settings: Marburg virus pseudotyped entry inhibition, cell reporter; series mostly up to 37.8 µM
With `NNc1nc(C(F)(F)F)nc2ccccc12` the Potency was “inactive”. In the case of `Cc1cccc(-c2cc(C(=O)N3CCCc4ccccc43)c3ccccc3n2)c1`, the Potency is reported as inconclusive: 15.8 µM [inhibitor, single point]. For `Clc1ccccc1Nc1nnc(-c2ccncc2)s1`, the Potency was inconclusive: 2 µM [inhibitor, full curve, poor fit]. In the case of `CC(C)(C)c1ccc(OCc2nnc(-c3ccccc3)o2)cc1`, the Potency is reported as inconclusive: 6.31 µM [inhibitor, single point]. With `COc1cccc2c1C(=O)C=C(C)C2=O` the Potency was active: 11.2 µM. With `Cc1sc(NC(=O)/C=C/c2ccco2)c(C(=O)OC(C)C)c1C` the Potency was inconclusive: 0.708 µM [inhibitor, single point]. In the case of `O=[N+]([O-])c1ccc(N2CCNCC2)cc1N1CCCCC1`, the Potency is reported as inconclusive: 16.4 µM [inhibitor, partial curve, poor fit]. In the case of `CCn1cc(C(=O)NCc2ccc(Cl)cc2)c(=O)c2cc(S(=O)(=O)N(C)C3CCCCC3)ccc21`, the Potency is reported as active: 2.82 µM. For `CCOC(=O)NC(=O)/C(C#N)=N/Nc1c(F)cccc1F`, the Potency was inconclusive: 35.5 µM [activator, partial curve, poor fit]. For `COC(=O)[C@@H](NC(=O)Nc1cccc(Br)c1)C(C)C`, the Potency was inconclusive: 16.4 µM [inhibitor, single point]. For `O=C(N/N=C/C1CCCCC1)c1cc(Cl)ccc1O`, the Potency was “inactive”. With `CCC(=O)Nc1ccc(S(=O)(=O)N2CCC(c3nc4ccccc4[nH]3)CC2)cc1` the Potency was “inactive”. With `CCn1cc(Br)c(C(=O)Nc2cccc(Cl)c2)n1` the Potency was “inactive”. In the case of `C=CCn1c(O)c(C(C)=NCCC(c2ccccc2)c2ccccc2)c(=O)[nH]c1=O`, the Potency is reported as inconclusive: 35.5 µM [inhibitor, partial curve, poor fit]. In the case of `Cc1csc(NC(=O)c2sc3nc(-c4cccs4)ccc3c2N)n1`, the Potency is reported as inconclusive: 3.26 µM [inhibitor, full curve]. With `Cc1nc2ccccc2c2c1C(=O)N(c1cccc(C(=O)O)c1)C2=O` the Potency was “inactive”. With `Cc1cc2occ(CC(=O)NC3=NCCS3)c2cc1C(C)C` the Potency was inconclusive: 23.1 µM [inhibitor, partial curve, poor fit]. In the case of `Cn1c(N)c(C(=O)CSc2nc3ccccc3c(=O)n2Cc2ccccc2)c(=O)n(C)c1=O`, the Potency is reported as inconclusive: 35.5 µM [inhibitor, single point]. With `CCN(C(=O)C1=COCCO1)c1nc2c(C)cccc2s1` the Potency was inconclusive: 5.62 µM [activator, partial curve]. With `CN(CC(=O)NCCC1=CCCCC1)S(=O)(=O)c1ccc2c(c1)CCC(=O)N2` the Potency was “inactive”. For `O=C(NCc1ccco1)c1ccc2ccccc2n1`, the Potency was “inactive”. In the case of `O=C(COc1ccc(-n2cnnn2)cc1)Nc1cc(Cl)cc(Cl)c1`, the Potency is reported as inconclusive: 5.62 µM [activator, single point]. In the case of `O=C(NCCSc1ccc(Br)cc1)c1ccccc1`, the Potency is reported as inconclusive: 14.1 µM [inhibitor, single point]. For `Cc1ccc(CN(C(=O)Cn2nnc3ccccc32)C(C(=O)NCc2ccco2)c2ccc(C)o2)cc1` (stereo not drawn), the Potency was “inactive”. For `Fc1ccc(-c2nc(Nc3cccc(C(F)(F)F)c3)nc3c2COc2ccccc2-3)cc1`, the Potency was inconclusive: 7.94 µM [inhibitor, partial curve, poor fit]. For `COc1ccc(OCC(=O)OCC(=O)NC2CCCC2)cc1`, the Potency was “inactive”. For `O=C(Nc1ccc2c(c1)OCO2)OCc1ccccc1`, the Potency was inconclusive: 0.82 µM [activator, partial curve, poor fit]. In the case of `Cc1ncc(CO)c(/C=N/NC(=O)c2cc3c(s2)CCCC3)c1O`, the Potency is reported as inconclusive: 7.3 µM [inhibitor, partial curve, poor fit]. With `Cc1ccc(C(=O)NC(=S)NCC2CCCO2)cc1[N+](=O)[O-]` (stereo not drawn) the Potency was inconclusive: 6.31 µM [activator, single point]. In the case of `CCOc1ccc(NC(=O)NC(C)CC)cc1` (stereo not drawn), the Potency is reported as inconclusive: 6.31 µM [inhibitor, single point]. With `O=C(CCC1N=C2c3ccccc3N=C(SCc3ccc(Cl)cc3)N2C1=O)N1CCN(c2ccccc2)CC1` (stereo not drawn) the Potency was inconclusive: 31.6 µM [activator, single point]. In the case of `COC(=O)C1=C(C)Nc2nc3ccccc3n2C1c1cc(OC)c(OC)c(OC)c1` (stereo not drawn), the Potency is reported as inconclusive: 35.5 µM [inhibitor, single point]. In the case of `COc1ccccc1NS(=O)(=O)c1ccc(N/N=C/c2c(C)nn(-c3ccccc3)c2N2CCCC2)c([N+](=O)[O-])c1`, the Potency is reported as inconclusive: 14.6 µM [activator, single point]. With `COCCOc1ccc(C(F)(F)F)cc1NC(=O)c1ccccc1F` the Potency was inconclusive: 1.12 µM [inhibitor, partial curve, poor fit]. For `Cn1c(CN2CCN(c3ccc(Cl)cc3)CC2)nc2ccccc21`, the Potency was inconclusive: 29.1 µM [inhibitor, partial curve, poor fit]. With `COc1ccccc1-c1ccc(SCC(=O)NCCc2ccccc2)nn1` the Potency was inconclusive: 1.26 µM [inhibitor, full curve, poor fit]. With `COc1ccc(OC)c(NC(=O)CN(Cc2ccc(F)cc2)C2CCCCC2)c1` the Potency was inconclusive: 25.9 µM [inhibitor, single point]. For `CCN(c1ccccc1)S(=O)(=O)c1ccc(C(=O)Nc2nnc(C3CC3)o2)cc1`, the Potency was inconclusive: 8.91 µM [inhibitor, partial curve, poor fit]. For `Clc1ccc(CNCCC2=CCCCC2)cc1`, the Potency was inconclusive: 29.1 µM [inhibitor, single point]. With `O=C(CNC(=O)c1cccs1)c1ccc(Br)cc1` the Potency was “inactive”. In the case of `CC/C(C)=N/Nc1ccc(S(=O)(=O)N2CCCC2)cc1[N+](=O)[O-]`, the Potency is reported as inconclusive: 8.91 µM [inhibitor, partial curve, poor fit]. With `Cc1nn(Cc2ccccc2)c(Cl)c1C(=O)OC(C)C#N` (stereo not drawn) the Potency was inconclusive: 2.82 µM [inhibitor, partial curve, poor fit]. With `CC1(C)Cc2nc(NC3CCCCC3)c(C#N)cc2CO1` the Potency was inconclusive: 6.31 µM [inhibitor, single point].

— PubChem BioAssay AID540276 (National Center for Advancing Translational Sciences (NCATS), 2011)
Potency is the fitted concentration of half-maximal effect.
